In article PMC11077367:
Results are given in words; binding and its absence hold for the method and conditions named. Binding seen in cells or lysates may run through a third protein. Some results given as binding are weak or reduced against the parent protein; the word gives no strength.

Sequences of proteins named here, by UniProt entry; tags and fusion partners are left off.
UniProt P17096: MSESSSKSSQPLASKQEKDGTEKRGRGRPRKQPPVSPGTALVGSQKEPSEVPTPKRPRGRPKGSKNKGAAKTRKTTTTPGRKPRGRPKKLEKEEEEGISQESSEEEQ

Molecular target: T1, ETS1 (human (endogenous in KYSE30)) (UniProt P14921)
T1 sequence: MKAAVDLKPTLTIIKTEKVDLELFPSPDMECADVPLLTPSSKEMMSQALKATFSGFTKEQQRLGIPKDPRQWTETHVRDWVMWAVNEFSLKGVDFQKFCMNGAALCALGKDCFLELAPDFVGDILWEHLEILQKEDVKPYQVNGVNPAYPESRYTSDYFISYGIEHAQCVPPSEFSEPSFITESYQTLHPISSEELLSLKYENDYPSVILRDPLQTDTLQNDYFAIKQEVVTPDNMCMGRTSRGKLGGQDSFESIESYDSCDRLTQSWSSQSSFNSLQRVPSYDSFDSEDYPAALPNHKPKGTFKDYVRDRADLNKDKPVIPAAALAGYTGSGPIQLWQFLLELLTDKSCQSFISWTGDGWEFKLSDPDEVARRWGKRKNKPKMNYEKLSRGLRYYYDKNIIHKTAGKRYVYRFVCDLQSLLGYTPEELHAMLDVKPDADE
Experiment: co-IP; whole cell lysates of KYSE30 cells (NP40 lysis buffer), 800 ug lysate with 5 ug anti-ETS1 antibody or mouse IgG overnight at 4°C, Protein A/G agarose beads; HMGA1 detected by western blot

binding: binds
Substance: HMGA1 (from UniProt P17096 1-107)
